Article PMC7541391
Where two headings read alike, the source gives them in different places. No constants are given. Whether binding was seen depends on the method and setting. Binding seen in cells or lysates may run through a third protein. These calls come from enrichment with a bait or labelling near it, and not all partners need be listed. For some assays here: A no says only that the protein was not detected with the bait.

Amino acid sequences for entries named in this document (tags omitted).
UniProt O15540: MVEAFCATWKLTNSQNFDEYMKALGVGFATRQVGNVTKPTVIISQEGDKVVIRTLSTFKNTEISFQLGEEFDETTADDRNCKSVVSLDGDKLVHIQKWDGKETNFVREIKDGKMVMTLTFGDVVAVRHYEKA
UniProt P31947: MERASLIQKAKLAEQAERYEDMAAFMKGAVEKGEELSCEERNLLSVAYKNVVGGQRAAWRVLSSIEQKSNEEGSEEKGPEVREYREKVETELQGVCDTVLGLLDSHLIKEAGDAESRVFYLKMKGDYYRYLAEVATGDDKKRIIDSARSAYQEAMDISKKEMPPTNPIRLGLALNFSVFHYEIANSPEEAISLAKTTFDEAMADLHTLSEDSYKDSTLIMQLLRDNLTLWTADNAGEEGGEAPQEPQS
UniProt P53396: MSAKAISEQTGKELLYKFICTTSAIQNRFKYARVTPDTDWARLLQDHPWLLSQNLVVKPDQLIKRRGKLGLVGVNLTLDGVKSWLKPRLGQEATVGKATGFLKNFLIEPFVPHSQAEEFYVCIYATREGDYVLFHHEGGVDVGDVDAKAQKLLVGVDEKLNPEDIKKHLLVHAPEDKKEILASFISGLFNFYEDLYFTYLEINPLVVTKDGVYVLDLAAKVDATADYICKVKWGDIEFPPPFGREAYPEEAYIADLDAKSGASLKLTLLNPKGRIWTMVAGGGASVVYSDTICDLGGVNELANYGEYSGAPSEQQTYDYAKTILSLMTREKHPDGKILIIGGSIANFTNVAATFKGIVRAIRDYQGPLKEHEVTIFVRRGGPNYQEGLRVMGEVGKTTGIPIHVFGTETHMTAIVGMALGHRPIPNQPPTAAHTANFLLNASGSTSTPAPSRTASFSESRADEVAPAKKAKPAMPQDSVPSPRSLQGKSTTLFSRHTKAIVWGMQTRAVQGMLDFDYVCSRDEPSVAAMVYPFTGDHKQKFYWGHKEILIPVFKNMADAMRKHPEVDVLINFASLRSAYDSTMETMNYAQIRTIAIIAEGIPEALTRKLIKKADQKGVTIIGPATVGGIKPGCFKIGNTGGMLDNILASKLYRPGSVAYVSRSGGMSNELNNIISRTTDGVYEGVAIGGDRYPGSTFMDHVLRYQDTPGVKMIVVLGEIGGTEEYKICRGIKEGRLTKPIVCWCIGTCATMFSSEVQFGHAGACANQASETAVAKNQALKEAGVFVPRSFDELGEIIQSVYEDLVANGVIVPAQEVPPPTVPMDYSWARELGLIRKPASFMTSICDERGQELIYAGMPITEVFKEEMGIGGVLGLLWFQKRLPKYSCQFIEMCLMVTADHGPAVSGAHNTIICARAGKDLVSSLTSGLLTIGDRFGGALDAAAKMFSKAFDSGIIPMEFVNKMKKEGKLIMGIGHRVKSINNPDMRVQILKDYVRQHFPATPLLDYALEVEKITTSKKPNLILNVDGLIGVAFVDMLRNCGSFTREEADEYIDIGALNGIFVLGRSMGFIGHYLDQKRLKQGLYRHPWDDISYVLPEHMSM
UniProt P58107: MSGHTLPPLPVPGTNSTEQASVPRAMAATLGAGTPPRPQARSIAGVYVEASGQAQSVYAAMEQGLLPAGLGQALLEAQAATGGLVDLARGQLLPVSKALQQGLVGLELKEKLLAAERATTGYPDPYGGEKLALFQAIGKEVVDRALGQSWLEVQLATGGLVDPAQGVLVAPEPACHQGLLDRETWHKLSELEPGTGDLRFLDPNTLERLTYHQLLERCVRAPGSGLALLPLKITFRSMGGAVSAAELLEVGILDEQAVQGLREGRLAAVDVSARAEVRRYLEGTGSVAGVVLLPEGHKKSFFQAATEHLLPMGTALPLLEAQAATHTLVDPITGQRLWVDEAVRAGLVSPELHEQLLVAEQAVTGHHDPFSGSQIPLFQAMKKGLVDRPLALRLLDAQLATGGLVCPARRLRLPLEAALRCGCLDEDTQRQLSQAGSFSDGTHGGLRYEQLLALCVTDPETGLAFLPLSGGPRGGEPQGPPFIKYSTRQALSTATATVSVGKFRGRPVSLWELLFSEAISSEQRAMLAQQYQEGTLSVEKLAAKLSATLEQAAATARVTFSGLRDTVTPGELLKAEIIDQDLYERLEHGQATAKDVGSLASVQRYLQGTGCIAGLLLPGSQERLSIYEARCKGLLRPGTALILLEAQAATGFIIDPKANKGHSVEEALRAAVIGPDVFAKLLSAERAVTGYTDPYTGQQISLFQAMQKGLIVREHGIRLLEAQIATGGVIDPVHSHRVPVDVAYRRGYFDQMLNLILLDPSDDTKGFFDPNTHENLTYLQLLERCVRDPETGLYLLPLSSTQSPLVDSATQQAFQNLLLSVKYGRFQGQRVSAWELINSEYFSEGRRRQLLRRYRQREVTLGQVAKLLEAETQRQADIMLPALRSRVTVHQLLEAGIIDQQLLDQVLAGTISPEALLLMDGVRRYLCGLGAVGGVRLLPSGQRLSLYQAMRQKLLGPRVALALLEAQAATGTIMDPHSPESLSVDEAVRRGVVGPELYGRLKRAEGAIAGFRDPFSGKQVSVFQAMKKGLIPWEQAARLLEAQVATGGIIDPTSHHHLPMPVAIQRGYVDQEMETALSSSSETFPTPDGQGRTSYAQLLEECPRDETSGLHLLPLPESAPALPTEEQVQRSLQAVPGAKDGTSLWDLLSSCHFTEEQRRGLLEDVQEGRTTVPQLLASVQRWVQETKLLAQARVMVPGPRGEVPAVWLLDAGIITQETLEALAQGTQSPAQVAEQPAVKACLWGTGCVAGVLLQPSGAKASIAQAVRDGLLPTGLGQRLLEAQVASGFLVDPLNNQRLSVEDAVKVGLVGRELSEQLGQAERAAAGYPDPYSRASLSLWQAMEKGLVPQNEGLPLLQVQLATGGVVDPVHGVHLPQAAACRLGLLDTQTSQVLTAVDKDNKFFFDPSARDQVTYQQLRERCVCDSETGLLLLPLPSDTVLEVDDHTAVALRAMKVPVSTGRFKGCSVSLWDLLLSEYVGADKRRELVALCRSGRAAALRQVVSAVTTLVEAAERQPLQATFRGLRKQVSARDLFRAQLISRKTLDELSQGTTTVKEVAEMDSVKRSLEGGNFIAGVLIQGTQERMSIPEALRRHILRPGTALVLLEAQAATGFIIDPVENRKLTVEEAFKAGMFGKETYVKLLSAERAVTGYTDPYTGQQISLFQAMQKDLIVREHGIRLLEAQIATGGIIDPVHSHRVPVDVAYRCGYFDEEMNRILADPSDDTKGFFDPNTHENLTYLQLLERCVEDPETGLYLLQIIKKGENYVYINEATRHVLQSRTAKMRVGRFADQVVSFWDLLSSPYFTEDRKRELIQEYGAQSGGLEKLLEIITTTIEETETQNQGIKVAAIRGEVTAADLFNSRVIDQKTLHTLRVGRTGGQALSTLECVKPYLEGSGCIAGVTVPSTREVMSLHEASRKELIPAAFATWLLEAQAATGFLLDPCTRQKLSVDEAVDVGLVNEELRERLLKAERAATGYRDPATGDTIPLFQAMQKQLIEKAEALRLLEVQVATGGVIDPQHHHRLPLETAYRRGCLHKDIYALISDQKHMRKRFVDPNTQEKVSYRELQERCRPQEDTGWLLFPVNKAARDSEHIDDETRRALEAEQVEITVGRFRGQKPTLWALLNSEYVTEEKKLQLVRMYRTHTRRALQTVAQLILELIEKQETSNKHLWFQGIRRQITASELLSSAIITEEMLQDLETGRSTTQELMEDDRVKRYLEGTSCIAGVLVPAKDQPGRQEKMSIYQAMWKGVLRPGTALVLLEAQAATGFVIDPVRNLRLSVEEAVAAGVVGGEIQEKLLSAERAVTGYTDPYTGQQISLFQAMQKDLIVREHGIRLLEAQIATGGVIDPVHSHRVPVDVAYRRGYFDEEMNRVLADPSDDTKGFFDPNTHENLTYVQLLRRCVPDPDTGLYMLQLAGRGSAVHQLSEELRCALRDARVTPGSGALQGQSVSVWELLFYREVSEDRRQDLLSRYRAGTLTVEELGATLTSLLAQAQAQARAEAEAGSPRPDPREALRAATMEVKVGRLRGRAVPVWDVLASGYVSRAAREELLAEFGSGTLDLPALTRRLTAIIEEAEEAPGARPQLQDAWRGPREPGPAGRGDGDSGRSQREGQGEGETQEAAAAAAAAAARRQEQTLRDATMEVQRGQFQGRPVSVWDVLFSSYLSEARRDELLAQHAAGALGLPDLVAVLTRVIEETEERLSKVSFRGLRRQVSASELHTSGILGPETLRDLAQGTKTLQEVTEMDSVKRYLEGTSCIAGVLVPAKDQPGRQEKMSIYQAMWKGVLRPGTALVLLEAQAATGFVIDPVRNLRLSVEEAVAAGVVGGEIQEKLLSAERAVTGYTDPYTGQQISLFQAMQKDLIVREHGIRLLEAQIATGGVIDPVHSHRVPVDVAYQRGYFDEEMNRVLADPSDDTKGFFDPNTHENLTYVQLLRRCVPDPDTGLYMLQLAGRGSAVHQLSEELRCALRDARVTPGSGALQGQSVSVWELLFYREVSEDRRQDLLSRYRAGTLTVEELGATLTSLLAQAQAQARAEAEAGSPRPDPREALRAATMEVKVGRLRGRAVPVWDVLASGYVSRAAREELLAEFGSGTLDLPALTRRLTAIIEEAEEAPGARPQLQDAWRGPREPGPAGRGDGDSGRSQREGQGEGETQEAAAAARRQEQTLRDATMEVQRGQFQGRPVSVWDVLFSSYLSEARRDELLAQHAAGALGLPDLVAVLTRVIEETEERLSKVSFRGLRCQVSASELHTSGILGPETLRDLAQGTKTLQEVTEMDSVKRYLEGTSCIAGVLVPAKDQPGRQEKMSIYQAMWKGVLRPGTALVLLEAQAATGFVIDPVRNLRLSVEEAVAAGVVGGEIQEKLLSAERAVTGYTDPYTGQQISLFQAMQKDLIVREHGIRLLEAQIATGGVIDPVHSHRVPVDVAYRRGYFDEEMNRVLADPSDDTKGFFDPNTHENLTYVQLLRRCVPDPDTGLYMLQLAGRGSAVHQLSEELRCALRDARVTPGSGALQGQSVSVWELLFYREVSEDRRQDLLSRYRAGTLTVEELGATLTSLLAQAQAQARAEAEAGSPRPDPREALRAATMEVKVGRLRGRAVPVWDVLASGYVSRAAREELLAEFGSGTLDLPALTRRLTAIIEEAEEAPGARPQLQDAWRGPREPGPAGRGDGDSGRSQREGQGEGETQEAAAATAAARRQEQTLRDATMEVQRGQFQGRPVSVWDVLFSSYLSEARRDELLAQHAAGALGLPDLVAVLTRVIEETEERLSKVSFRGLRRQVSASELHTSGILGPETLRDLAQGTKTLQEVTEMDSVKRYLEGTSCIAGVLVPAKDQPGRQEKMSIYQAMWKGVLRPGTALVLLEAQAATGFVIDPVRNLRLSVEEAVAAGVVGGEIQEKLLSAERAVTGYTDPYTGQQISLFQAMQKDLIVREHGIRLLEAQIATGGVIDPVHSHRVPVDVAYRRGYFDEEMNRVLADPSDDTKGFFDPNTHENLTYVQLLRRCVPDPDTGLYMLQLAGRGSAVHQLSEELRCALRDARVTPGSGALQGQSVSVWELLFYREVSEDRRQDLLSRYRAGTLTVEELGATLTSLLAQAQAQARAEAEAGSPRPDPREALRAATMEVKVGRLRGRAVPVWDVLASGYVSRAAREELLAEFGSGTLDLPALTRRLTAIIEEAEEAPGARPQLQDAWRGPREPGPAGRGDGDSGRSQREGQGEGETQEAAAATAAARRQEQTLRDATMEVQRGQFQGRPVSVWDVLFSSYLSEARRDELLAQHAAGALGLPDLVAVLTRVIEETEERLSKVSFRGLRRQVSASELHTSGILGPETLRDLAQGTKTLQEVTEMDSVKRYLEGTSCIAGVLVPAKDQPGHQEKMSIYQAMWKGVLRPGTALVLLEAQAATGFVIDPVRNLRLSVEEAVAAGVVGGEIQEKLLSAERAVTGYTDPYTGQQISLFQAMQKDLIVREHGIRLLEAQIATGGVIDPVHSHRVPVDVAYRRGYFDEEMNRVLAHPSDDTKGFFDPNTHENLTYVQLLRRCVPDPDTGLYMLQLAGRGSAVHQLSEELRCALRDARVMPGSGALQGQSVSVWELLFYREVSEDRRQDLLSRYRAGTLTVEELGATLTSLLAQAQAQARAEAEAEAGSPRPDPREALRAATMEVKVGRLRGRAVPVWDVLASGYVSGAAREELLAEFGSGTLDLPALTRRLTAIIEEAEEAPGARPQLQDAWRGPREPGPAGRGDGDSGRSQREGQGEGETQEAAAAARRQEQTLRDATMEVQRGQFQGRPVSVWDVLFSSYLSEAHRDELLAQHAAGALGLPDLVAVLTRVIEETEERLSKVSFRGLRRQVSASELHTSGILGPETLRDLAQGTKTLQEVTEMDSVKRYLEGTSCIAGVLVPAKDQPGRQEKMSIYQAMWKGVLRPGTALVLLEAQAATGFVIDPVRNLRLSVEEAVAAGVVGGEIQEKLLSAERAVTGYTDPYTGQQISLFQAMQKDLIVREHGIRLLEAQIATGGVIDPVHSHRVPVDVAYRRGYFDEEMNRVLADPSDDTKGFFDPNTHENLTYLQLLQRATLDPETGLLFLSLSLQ

What was measured:
Assay in all cases: affinity purification with mass spectrometry; lysate of HEK293T cells overexpressing FLAG-tagged FABP7 (wt or mut), pre-cleared with Protein A Sepharose, anti-FLAG magnetic beads at 4 °C overnight, elution with FLAG peptide, SDS-PAGE, silver-stained bands, LC-MS/MS
[1] = target: FLAG-human FABP7wt (human) (UniProt O15540)
[2] = target: FLAG-human FABP7wt (human) (UniProt O15540); remark: listed apart in the source
[3] = target: FLAG-human FABP7mut (human)

Molecule	binding [1]	binding [2]	binding [3]
Immunoglobulin heavy constant gamma 1 (from UniProt P01857-1)	binds		
Alpha-actinin-4 (from UniProt O43707 1-911)	binds		
Gelsolin (from UniProt P06396 28-782)	binds		
Serum albumin (from UniProt P02768 25-609)	binds		
Heat shock protein HSP 90-beta (from UniProt P08238 1-724)	binds		
Histone H1.3 (from UniProt P16402 1-221)	binds		
ATP synthase subunit beta, mitochondrial (from UniProt P06576 48-529)	binds		
Heat shock protein beta-1 (from UniProt P04792 1-205)	binds		
14-3-3 protein sigma (from UniProt P31947 1-248)	binds		
Proteasome subunit alpha type-6 (from UniProt P60900 1-246)	binds		
Poly [ADP-ribose] polymerase 1 (from UniProt P09874 1-1014)	binds		
ATP-citrate lyase (human, from HEK293T cells) (from UniProt P53396 1-1101) (enzyme)	binds		
Epiplakin (from UniProt P58107 1-5088)	binds		
Proteolipid protein 2 (protein, UniProt Q04941 1-152) MADSERLSAPGCWAACTNFSRTRKGILLFAEIILCLVILICFSASTPGYSSLSVIEMILAAIFFVVYMCDLHTKIPFINWPWSDFFRTLIAAILYLITSIVVLVERGNHSKIVAGVLGLIATCLFGYDAYVTFPVRQPRHTAAPTDPADGPV		binds	no binding
Plakophilin-1 (protein, UniProt Q13835 1-747) MNHSPLKTALAYECFQDQDNSTLALPSDQKMKTGTSGRQRVQEQVMMTVKRQKSKSSQSSTLSHSNRGSMYDGLADNYNYGTTSRSSYYSKFQAGNGSWGYPIYNGTLKREPDNRRFSSYSQMENWSRHYPRGSCNTTGAGSDICFMQKIKASRSEPDLYCDPRGTLRKGTLGSKGQKTTQNRYSFYSTCSGQKAIKKCPVRPPSCASKQDPVYIPPISCNKDLSFGHSRASSKICSEDIECSGLTIPKAVQYLSSQDEKYQAIGAYYIQHTCFQDESAKQQVYQLGGICKLVDLLRSPNQNVQQAAAGALRNLVFRSTTNKLETRRQNGIREAVSLLRRTGNAEIQKQLTGLLWNLSSTDELKEELIADALPVLADRVIIPFSGWCDGNSNMSREVVDPEVFFNATGCLRKRLGMRELLALVPQRATSSRVNLSSADAGRQTMRNYSGLIDSLMAYVQNCVAASRCDDKSVENCMCVLHNLSYRLDAEVPTRYRQLEYNARNAYTEKSSTGCFSNKSDKMMNNNYDCPLPEEETNPKGSGWLYHSDAIRTYLNLMGKSKKDATLEACAGALQNLTASKGLMSSGMSQLIGLKEKGLPQIARLLQSGNSDVVRSGASLLSNMSRHPLLHRVMGNQVFPEVTRLLTSHTGNTSNSEDILSSACYTVRNLMASQPQLAKQYFSSSMLNNIINLCRSSASPKAAEAARLLLSDMWSSKELQGVLRQQGFDRNMLGTLAGANSLRNFTSRF		binds	
Protein-glutamine gamma-glutamyltransferase K (protein, UniProt P22735 1-817) MMDGPRSDVGRWGGNPLQPPTTPSPEPEPEPDGRSRRGGGRSFWARCCGCCSCRNAADDDWGPEPSDSRGRGSSSGTRRPGSRGSDSRRPVSRGSGVNAAGDGTIREGMLVVNGVDLLSSRSDQNRREHHTDEYEYDELIVRRGQPFHMLLLLSRTYESSDRITLELLIGNNPEVGKGTHVIIPVGKGGSGGWKAQVVKASGQNLNLRVHTSPNAIIGKFQFTVRTQSDAGEFQLPFDPRNEIYILFNPWCPEDIVYVDHEDWRQEYVLNESGRIYYGTEAQIGERTWNYGQFDHGVLDACLYILDRRGMPYGGRGDPVNVSRVISAMVNSLDDNGVLIGNWSGDYSRGTNPSAWVGSVEILLSYLRTGYSVPYGQCWVFAGVTTTVLRCLGLATRTVTNFNSAHDTDTSLTMDIYFDENMKPLEHLNHDSVWNFHVWNDCWMKRPDLPSGFDGWQVVDATPQETSSGIFCCGPCSVESIKNGLVYMKYDTPFIFAEVNSDKVYWQRQDDGSFKIVYVEEKAIGTLIVTKAISSNMREDITYLYKHPEGSDAERKAVETAAAHGSKPNVYANRGSAEDVAMQVEAQDAVMGQDLMVSVMLINHSSSRRTVKLHLYLSVTFYTGVSGTIFKETKKEVELAPGASDRVTMPVAYKEYRPHLVDQGAMLLNVSGHVKESGQVLAKQHTFRLRTPDLSLTLLGAAVVGQECEVQIVFKNPLPVTLTNVVFRLEGSGLQRPKILNVGDIGGNETVTLRQSFVPVRPGPRQLIASLDSPQLSQVHGVIQVDVAPAPGDGGFFSDAGGDSHLGETIPMASRGGA		binds	no binding
Macrophage-capping protein (protein, UniProt P40121 1-348) MYTAIPQSGSPFPGSVQDPGLHVWRVEKLKPVPVAQENQGVFFSGDSYLVLHNGPEEVSHLHLWIGQQSSRDEQGACAVLAVHLNTLLGERPVQHREVQGNESDLFMSYFPRGLKYQEGGVESAFHKTSTGAPAAIKKLYQVKGKKNIRATERALNWDSFNTGDCFILDLGQNIFAWCGGKSNILERNKARDLALAIRDSERQGKAQVEIVTDGEEPAEMIQVLGPKPALKEGNPEEDLTADKANAQAAALYKVSDATGQMNLTKVADSSPFALELLISDDCFVLDNGLCGKIYIWKGRKANEKERQAALQVAEGFISRMQYAPNTQVEILPQGHESPIFKQFFKDWK		binds	no binding
Thymidine phosphorylase (protein, UniProt P19971 11-482) APPAPGDFSGEGSQGLPDPSPEPKQLPELIRMKRDGGRLSEADIRGFVAAVVNGSAQGAQIGAMLMAIRLRGMDLEETSVLTQALAQSGQQLEWPEAWRQQLVDKHSTGGVGDKVSLVLAPALAACGCKVPMISGRGLGHTGGTLDKLESIPGFNVIQSPEQMQVLLDQAGCCIVGQSEQLVPADGILYAARDVTATVDSLPLITASILSKKLVEGLSALVVDVKFGGAAVFPNQEQARELAKTLVGVGASLGLRVAAALTAMDKPLGRCVGHALEVEEALLCMDGAGPPDLRDLVTTLGGALLWLSGHAGTQAQGAARVAAALDDGSALGRFERMLAAQGVDPGLARALCSGSPAERRQLLPRAREQEELLAPADGTVELVRALPLALVLHELGAGRSRAGEPLRLGVGAELLVDVGQRLRRGTPWLRVHRDGPALSGPQSRALQEALVLSDRAPFAAPSPFAELVLPPQQ		binds	no binding
Desmoglein-3 (protein, UniProt P32926 50-999) EWVKFAKPCREGEDNSKRNPIAKITSDYQATQKITYRISGVGIDQPPFGIFVVDKNTGDINITAIVDREETPSFLITCRALNAQGLDVEKPLILTVKILDINDNPPVFSQQIFMGEIEENSASNSLVMILNATDADEPNHLNSKIAFKIVSQEPAGTPMFLLSRNTGEVRTLTNSLDREQASSYRLVVSGADKDGEGLSTQCECNIKVKDVNDNFPMFRDSQYSARIEENILSSELLRFQVTDLDEEYTDNWLAVYFFTSGNEGNWFEIQTDPRTNEGILKVVKALDYEQLQSVKLSIAVKNKAEFHQSVISRYRVQSTPVTIQVINVREGIAFRPASKTFTVQKGISSKKLVDYILGTYQAIDEDTNKAASNVKYVMGRNDGGYLMIDSKTAEIKFVKNMNRDSTFIVNKTITAEVLAIDEYTGKTSTGTVYVRVPDFNDNCPTAVLEKDAVCSSSPSVVVSARTLNNRYTGPYTFALEDQPVKLPAVWSITTLNATSALLRAQEQIPPGVYHISLVLTDSQNNRCEMPRSLTLEVCQCDNRGICGTSYPTTSPGTRYGRPHSGRLGPAAIGLLLLGLLLLLLAPLLLLTCDCGAGSTGGVTGGFIPVPDGSEGTIHQWGIEGAHPEDKEITNICVPPVTANGADFMESSEVCTNTYARGTAVEGTSGMEMTTKLGAATESGGAAGFATGTVSGAASGFGAATGVGICSSGQSGTMRTRHSTGGTNKDYADGAISMNFLDSYFSQKAFACAEEDDGQEANDCLLIYDNEGADATGSPVGSVGCCSFIADDLDDSFLDSLGPKFKKLAEISLGVDGEGKEVQPPSKDSGYGIESCGHPIEVQQTGFVKCQTLSGSQGASALSTSGSVQPAVSIPDPLQHGNYLVTETYSASGSLVQPSTAGFDPLLTQNVIVTERVICPISSVPGNLAGPTQLRGSHTMLCTEDPCSRLI		binds	no binding
Peroxiredoxin-1 (protein, UniProt Q06830 1-199) MSSGNAKIGHPAPNFKATAVMPDGQFKDISLSDYKGKYVVFFFYPLDFTFVCPTEIIAFSDRAEEFKKLNCQVIGASVDSHFCHLAWVNTPKKQGGLGPMNIPLVSDPKRTIAQDYGVLKADEGISFRGLFIIDDKGILRQITVNDLPVGRSVDETLRLVQAFQFTDKHGEVCPAGWKPGSDTIKPDVQKSKEYFSKQK		binds	
Serpin B3 (protein, UniProt P29508 1-390) MNSLSEANTKFMFDLFQQFRKSKENNIFYSPISITSALGMVLLGAKDNTAQQIKKVLHFDQVTENTTGKAATYHVDRSGNVHHQFQKLLTEFNKSTDAYELKIANKLFGEKTYLFLQEYLDAIKKFYQTSVESVDFANAPEESRKKINSWVESQTNEKIKNLIPEGNIGSNTTLVLVNAIYFKGQWEKKFNKEDTKEEKFWPNKNTYKSIQMMRQYTSFHFASLEDVQAKVLEIPYKGKDLSMIVLLPNEIDGLQKLEEKLTAEKLMEWTSLQNMRETRVDLHLPRFKVEESYDLKDTLRTMGMVDIFNGDADLSGMTGSRGLVLSGVLHKAFVEVTEEGAEAAAATAVVGFGSSPTSTNEEFHCNHPFLFFIRQNKTNSILFYGRFSSP		binds	no binding
Serpin B4 (protein, UniProt P48594 1-390) MNSLSEANTKFMFDLFQQFRKSKENNIFYSPISITSALGMVLLGAKDNTAQQISKVLHFDQVTENTTEKAATYHVDRSGNVHHQFQKLLTEFNKSTDAYELKIANKLFGEKTYQFLQEYLDAIKKFYQTSVESTDFANAPEESRKKINSWVESQTNEKIKNLFPDGTIGNDTTLVLVNAIYFKGQWENKFKKENTKEEKFWPNKNTYKSVQMMRQYNSFNFALLEDVQAKVLEIPYKGKDLSMIVLLPNEIDGLQKLEEKLTAEKLMEWTSLQNMRETCVDLHLPRFKMEESYDLKDTLRTMGMVNIFNGDADLSGMTWSHGLSVSKVLHKAFVEVTEEGVEAAAATAVVVVELSSPSTNEEFCCNHPFLFFIRQNKTNSILFYGRFSSP		binds	no binding
